From PubChem BioAssay AID2685 (National Center for Advancing Translational Sciences (NCATS), 2010)
The campaign covered roughly 320,000 compounds. About 2,100 (0.66%) were called active. The inconclusive results got no clear call from the source; some entries with a clear call stand among them for comparison. Calls come from the whole dose curve; as a rule, active = well fitted inhibition curve with a large enough effect in the signal ratio, with a control signal flat (not every such curve was filed as active); inconclusive = small, poorly fitted or top-dose-only effect, or effect the other way, or a change in a side signal; inactive = flat fitted curve, though single readings scatter; the % refers to the signal ratio. Potencies beside an inconclusive call are fits to weak or partial responses and may not hold up.
% is set by controls: 0 for no effect and ±100 for the full control effect; potency is the fitted concentration of half-maximal effect.

Experiment: qHTS Assay for Lipid Storage Modulators in Drosophila S3 Cells
Conditions: BODIPY lipid droplet fluorescence, 18-24 h, cells fed with added oleic acid; lipid storage change, negative = inhibition: at 46.1 µM (top of the series) unless noted
Summary of the method: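 Drosophila S3 cells got compounds at several concentrations plus oleic acid (400 uM solution). Laser-scanning cytometry with 488 nm excitation read lipid droplets at 500-530 nm and cells at 575-640 nm. Percent activity was relative to 20 uM Triacsin C.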
In the case of `CN(C)CC(C)(C)CNS(=O)(=O)c1ccc(Cl)s1`, the Potency is reported as inconclusive: 4.61 µM [falling, full curve, poor fit].
In the case of `CCN(CC)CCNC(=O)c1cc(S(=O)(=O)N2CCc3ccccc32)cn1C`, the Potency is reported as inconclusive: 2.06 µM [activator, partial curve].
For `Cc1ccc(S(=O)(=O)CCN2CCN(c3ccccc3)CC2)cc1`, the lipid storage change, negative = inhibition was “inactive”.
For `COCCNC(=S)Nc1ccc([N+](=O)[O-])cc1C`, the lipid storage change, negative = inhibition was inconclusive: -0.73%.
With `Cc1ccc(C(=O)CSc2nnc(-c3ccco3)n2Cc2ccccc2)cc1` the Potency was inconclusive: 0.517 µM [falling, partial curve].
With `COCc1nnc(NS(=O)(=O)c2ccccc2)s1` the lipid storage change, negative = inhibition was inconclusive: -36.6%.
With `COc1ccc(-c2nc(NCCCN(C)C)c3ccccc3n2)cc1` the lipid storage change, negative = inhibition was inconclusive: -13.2%.
In the case of `Cc1cccc(N(CC(=O)N2CCCCCC2)S(C)(=O)=O)c1`, the Potency is reported as inconclusive: 16.4 µM [falling, single point].
In the case of `NCCNC[C@@H]1COC2(CCCCCCCCCCC2)O1`, the lipid storage change, negative = inhibition is reported as “inactive”.
With `CCOC(=O)c1ccc(NC(=S)NCCc2ccc(F)cc2)cc1` the lipid storage change, negative = inhibition was inconclusive: -17%.
In the case of `COC(=O)C[N+](C)(C)C/C=C\c1ccccc1`, the Potency is reported as inconclusive: 0.259 µM [falling, full curve].
With `CCO[C@H]1OC(C(=O)NC2CC2)=C[C@@H](c2coc3ccccc3c2=O)[C@@H]1CCCO` the lipid storage change, negative = inhibition was inconclusive: -12.6%.
With `O=S(=O)(Nc1ccc(Br)cc1)c1cccc(NC(=S)NCCN2CCOCC2)c1` the lipid storage change, negative = inhibition was “inactive”.
In the case of `c1ccc(-c2nn3c(Cn4cnc5ccccc54)nnc3s2)cc1`, the Potency is reported as inconclusive: 2.59 µM [rising, partial curve].
With `CCCCP(=O)(CCCC)c1ccccc1C(=O)O` the lipid storage change, negative = inhibition was inconclusive: -0.0617%.
In the case of `COCc1ccc(O)c2ncccc12`, the lipid storage change, negative = inhibition is reported as inconclusive: -18.5%.
With `CC(c1ccccn1)N(C)C(=O)c1ccc2nc(Cc3ccccc3F)oc2c1` (centres undefined) the Potency was inconclusive: 0.651 µM [activator, partial curve, poor fit].
For `Cc1cccc(NC(=O)CNC(=O)COc2ccc(-c3ccc(C#N)cc3)cc2)c1C`, the lipid storage change, negative = inhibition was inconclusive: 27.9%.
In the case of `CC(=O)c1ccc(Nc2nc3ccccc3nc2NS(=O)(=O)c2cccs2)cc1`, the Potency is reported as inconclusive: 3.66 µM [falling, full curve, poor fit].
With `Cc1ccccc1NC(=O)NNC(=O)COc1ccc2ccccc2c1` the lipid storage change, negative = inhibition was inconclusive: -47.5%.
With `FC(F)(F)c1cccc(N2CCN(C(=S)NC3CCCCC3)CC2)c1` the lipid storage change, negative = inhibition was inconclusive: 4.3%.
For `S=c1nc(C23CC4CC(CC(C4)C2)C3)[nH][nH]1`, the lipid storage change, negative = inhibition was inconclusive: 11%.
In the case of `CCOc1ccc(S(=O)(=O)N2CCC(C(=O)NC3CCCCC3)CC2)cc1`, the Potency is reported as inconclusive: 18.4 µM [activator, single point].
In the case of `CSc1cc(C)n(-c2ccccc2C)c(=S)c1C(C)=O`, the Potency is reported as active: 29.1 µM.
With `CCN(CC)C(=S)NC(=O)c1ccc(OC)c(Br)c1` the lipid storage change, negative = inhibition was inconclusive: -14.7%.
For `CCOc1cc(/C=N/NC(=O)c2ccccn2)ccc1OC(=O)c1ccc(F)cc1`, the lipid storage change, negative = inhibition was “inactive”.
With `O=C1c2ccccc2C(=O)c2c(NCc3cccnc3)cccc21` the lipid storage change, negative = inhibition was inconclusive: -10.4%.
For `CC(=O)c1cccc(NC(=O)COC(=O)CCc2ccc(S(=O)(=O)N3CCOCC3)cc2)c1`, the lipid storage change, negative = inhibition was inconclusive: -20.8%.
In the case of `Cc1ccc(OCC(=O)N(C)CC(=O)NCc2ccco2)c(Br)c1`, the lipid storage change, negative = inhibition is reported as “inconclusive”.
With `CCOc1ccc(N2C(=O)c3ccc(C(=O)OCc4c(C)noc4C)cc3C2=O)cc1` the lipid storage change, negative = inhibition was inconclusive: 31.9%.
For `Cc1cccc(C)c1NC(=S)N(CCN(C)C)Cc1cccs1`, the lipid storage change, negative = inhibition was “inactive”.
For `CCCc1ccc(S(=O)(=O)N2CCN(Cc3ccco3)CC2)cc1`, the Potency was inconclusive: 20.6 µM [activator, single point].
With `COc1ccc(Nc2nc(-c3ccccc3)c3ccccc3n2)cc1` the lipid storage change, negative = inhibition was inconclusive: 13.6%.
In the case of `Cc1ccc(/C=N/NC(=O)Cc2c(F)cccc2Cl)s1`, the lipid storage change, negative = inhibition is reported as “inactive”.
In the case of `Cc1cccc(NC(=O)[C@H](Cc2c[nH]c3ccccc23)NC(=O)[C@@H]2Cc3ccccc3CN2)c1`, the lipid storage change, negative = inhibition is reported as inconclusive: -35.3%.
In the case of `COc1cc(NC(C)CCCN)c2ncccc2c1` (centres undefined), the lipid storage change, negative = inhibition is reported as inconclusive: 15.5%.
In the case of `Cc1ccc(NC(=O)CSc2ccc3c(c2)OCCO3)nc1`, the lipid storage change, negative = inhibition is reported as inconclusive: -18.5%.
With `COc1ccc(/C=N/NC(=O)CN2CCCCCCC2)c(C)c1C` the Potency was inconclusive: 0.0651 µM [falling, full curve, poor fit].
With `Cc1cc(C)c[n+](C(C)C(=O)c2ccc(Cl)cc2)c1` (centres undefined) the lipid storage change, negative = inhibition was inconclusive: 62.8%.
In the case of `Cc1cc(=O)c2ccc(Cl)cc2[nH]1`, the lipid storage change, negative = inhibition is reported as inconclusive: 11.9%.
With `Cc1ccc(Nc2nc3ccccc3c(=O)s2)cc1C` the lipid storage change, negative = inhibition was inconclusive: -16.7%.
For `CCOc1cccc(C(=O)NC(=S)Nc2cccnc2)c1`, the Potency was inconclusive: 20.6 µM [rising, single point].
With `O=C(Nc1ccc2ccccc2c1)C(c1ccccc1)C1CCCC1` (centres undefined) the lipid storage change, negative = inhibition was inconclusive: 7.08%.
In the case of `Cc1cccc(C(=O)OC2CCOC2=O)c1O` (centres undefined), the Potency is reported as active: 0.731 µM.
For `O=C(COC(=O)CNC(=O)C1CCCCC1)Nc1ccccc1Cl`, the lipid storage change, negative = inhibition was inconclusive: 11.2%.
With `CCOC(=O)/C(C#N)=C1/SC(C)C(=O)N1c1ccc(Br)cc1` (centres undefined) the lipid storage change, negative = inhibition was inconclusive: 8.07%.
In the case of `O=C1CCCC/C1=C/Nc1ccc2c(c1)OCO2`, the lipid storage change, negative = inhibition is reported as inconclusive: 27.2%.
With `NS(=O)(=O)c1cccc(NC(=O)COC(=O)CCc2ccccc2)c1` the lipid storage change, negative = inhibition was inconclusive: 109%.
For `O=C(CCc1nc(-c2ccccc2)no1)Nc1cc(C(F)(F)F)ccc1Cl`, the lipid storage change, negative = inhibition was inconclusive: -12.1%.
In the case of `Cn1c(=O)n(C)c2cc(S(=O)(=O)NCc3ccccc3)ccc21`, the lipid storage change, negative = inhibition is reported as inconclusive: 74.6%.
In the case of `COc1ccc(OC)c(NC(=O)COc2ccc(Br)cc2)c1`, the lipid storage change, negative = inhibition is reported as inconclusive: 26.8%.
For `O=C(Nc1nc2c(F)c(F)c(F)cc2s1)c1ccco1`, the lipid storage change, negative = inhibition was inconclusive: -18.4%.
With `COc1ccc(CCNC(=O)COC(=O)c2cc(=O)c3ccccc3o2)cc1` the lipid storage change, negative = inhibition was inconclusive: -51.8%.
With `CCSc1nc2c(c(=O)[nH]1)C(c1cccnc1)C(C(=O)OC)=C(C)N2` (centres undefined) the Potency was inconclusive: 9.2 µM [activator, partial curve].
With `CC(=O)N1CCN(C(=O)COc2ccc(Br)cc2)CC1` the Potency was inconclusive: 29.1 µM [falling, single point].
In the case of `COc1ccc(/C=N/NC(=O)c2ccc3nc[nH]c3c2)cc1OC`, the lipid storage change, negative = inhibition is reported as inconclusive: 3.02%.
With `COc1ccc2occ(C(=O)c3ccc(N)cc3)c2c1` the lipid storage change, negative = inhibition was inconclusive: 19.3%.
With `O=C1CC(=O)Nc2cc(S(=O)(=O)N3CCN(c4cccc(C(F)(F)F)c4)CC3)ccc2N1` the lipid storage change, negative = inhibition was inconclusive: -1.93%.
For `CCCCn1c(N)c(N(CC)C(=O)c2cccc(F)c2)c(=O)[nH]c1=O`, the Potency was inconclusive: 0.146 µM [activator, full curve].
With `COC(=O)C1(C)NC(c2ccccc2C)C2C(=O)N(c3ccccc3)C(=O)C21` (centres undefined) the Potency was inconclusive: 3.26 µM [falling, single point].
In the case of `O=C(COC(=O)c1ccccn1)Nc1ccccc1OC(F)F`, the lipid storage change, negative = inhibition is reported as inconclusive: 18.3%.
In the case of `CC(NC(=O)c1ccc(F)cc1F)C1CC2CCC1C2` (centres undefined), the Potency is reported as inconclusive: 3.66 µM [falling, full curve, poor fit].
In the case of `CCc1noc(C)c1C(=O)N1CCN(S(=O)(=O)c2ccc(Cl)cc2)CC1`, the Potency is reported as inconclusive: 3.26 µM [activator, partial curve, poor fit].
For `CCn1c(CC(=O)Nc2ccccc2F)nnc1SCC(=O)NC1CCCC1`, the lipid storage change, negative = inhibition was inconclusive: -77.2%.
In the case of `C=C1C[C@H](O)[C@@H]2[C@H](OC(=O)[C@H]2C)[C@H]2[C@H](C)[C@@H](O)C[C@@H]12`, the Potency is reported as inconclusive: 1.3 µM [falling, full curve].
In the case of `COc1ccc(C(=O)N2CCCC2)cc1S(=O)(=O)N1CCC(C)CC1`, the lipid storage change, negative = inhibition is reported as inconclusive: 44.1%.
For `O=C(c1cc(F)c(F)cc1Cl)N1CCN(CCc2ccccc2)CC1`, the lipid storage change, negative = inhibition was inconclusive: 11.2%.
For `COc1ccccc1N1CCN(C(=O)C(C)N(c2ccc(C)cc2)S(C)(=O)=O)CC1` (centres undefined), the lipid storage change, negative = inhibition was inconclusive: 17.5%.
In the case of `COc1cccc(CNC(=O)CN2C(=O)CCSc3ccc(S(=O)(=O)N4CCCC4)cc32)c1`, the Potency is reported as inconclusive: 29.1 µM [activator, single point].
For `CCOc1ccc(OCC)c(NC(=O)CN(c2ccc(OC)cc2)S(=O)(=O)c2c(C)noc2C)c1`, the Potency was inconclusive: 29.1 µM [activator, single point].
With `COc1cc(OC)c(C2CC(=O)N3CN(C)CSC3=C2C#N)cc1OC` (centres undefined) the Potency was inconclusive: 4.11 µM [activator, single point].
In the case of `Cn1cc(S(=O)(=O)N2CCOCC2)cc1C(=O)NCc1ccccc1Cl`, the lipid storage change, negative = inhibition is reported as inconclusive: 56.6%.
In the case of `O=C(Nc1ccc(F)cc1)c1csc(Cc2ccccc2)n1`, the lipid storage change, negative = inhibition is reported as “inactive”.
For `S=C1NC2(CCCCC2)N=C1c1ccccc1`, the Potency was inconclusive: 0.259 µM [activator, partial curve, poor fit].
For `COc1cccc(CC(Cc2nc3ccccc3[nH]2)c2nc3ccccc3[nH]2)c1` (centres undefined), the lipid storage change, negative = inhibition was inconclusive: -14.2%.
With `C=CCN1C(=O)/C(=C/C(=O)OC)S/C1=N\NC(=O)c1ccccc1` the Potency was inconclusive: 29.1 µM [cytotoxic, partial curve, poor fit].
In the case of `COc1ccc(NC(=O)CSc2nc(C(C)C)nc3c2c(=O)n(C)c(=O)n3C)c(OC)c1`, the Potency is reported as inconclusive: 2.31 µM [falling, full curve, poor fit].
With `Cc1cc(CN2CCN(CC(=O)Nc3cc(C(F)(F)F)ccc3-n3cncn3)CC2)no1` the Potency was inconclusive: 0.092 µM [falling, full curve, poor fit].
In the case of `CC1CCN(S(=O)(=O)c2ccc(NC(=O)c3ccco3)cc2)CC1`, the Potency is reported as active: 16.4 µM.
